Screening data

The results are deposited in PubChem (AID530; NCATS, 2006).

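Mouse JNK3 kinase in lysate of cytokine-stimulated human HepG2 cells; biotin-c-Jun phosphorylation read by AlphaScreen luminescence after a 2 h reaction and 3 h bead step.
Each compound ran as a dilution series from about 0.6 nM up to 57.1 µM.
Fitted AC50 for either an inhibiting or an activating curve; a lower value means greater potency.
Calls come from the fitted dose curve (inhibitor, activator, inactive or inconclusive); every row here is inconclusive, including some full curves, so the exact cut-off is unclear.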

Values are in µM.
All entries here are filed as inconclusive.
Only part of the assay is shown, chiefly results filed as inconclusive.
Potencies fitted to partial, single-point or poorly fitting curves are rough.
Some entries filed as inconclusive have a full curve.
The first word of each remark tells which way the curve ran; it can be opposite to the aim of the assay.

{"compound": "Nc1ccc(O)c(C(=O)O)c1", "Potency (µM)": "12.59", "curve": "inhibitor, partial curve"}
{"compound": "N#C/C(=C\\c1ccc(O)c(O)c1)C(=O)c1ccc(O)c(O)c1", "Potency (µM)": "7.943", "curve": "inhibitor, partial curve"}
{"compound": "O=C1c2ccccc2-c2ccc(N(Cc3ccc(Br)cc3)Cc3ccc(Br)cc3)cc21", "Potency (µM)": "1", "curve": "inhibitor, single point"}
{"compound": "CCCCCCCCCCCCCC(=O)O", "Potency (µM)": "25.12", "curve": "activator, partial curve"}
{"compound": "C=CCCC#N", "Potency (µM)": "0.01995", "curve": "activator, full curve, poor fit"}
{"compound": "C[C@H](Cc1ccc(O)c(O)c1)[C@@H](C)Cc1ccc(O)c(O)c1", "Potency (µM)": "15.85", "curve": "inhibitor, partial curve"}
{"compound": "C=C[C@@]1(C)CC(=O)[C@@]2(O)[C@@]3(C)[C@H](O)CCC(C)(C)[C@@H]3[C@H](O)[C@H](OC(C)=O)[C@]2(C)O1", "Potency (µM)": "15.85", "curve": "activator, partial curve, poor fit"}
{"compound": "CC[C@@H](CO)NC(=O)[C@H]1C=C2c3cccc4c3c(cn4C)C[C@H]2N(C)C1", "Potency (µM)": "31.62", "curve": "inhibitor, single point"}
{"compound": "COc1ccc(C(Cl)=C(c2ccc(OC)cc2)c2ccc(OC)cc2)cc1", "Potency (µM)": "39.81", "curve": "activator, single point"}
{"compound": "CN(C)CCCn1cc(C2=C(c3c[nH]c4ccccc34)C(=O)NC2=O)c2ccccc21", "Potency (µM)": "31.62", "curve": "inhibitor, partial curve"}
{"compound": "Oc1c(Br)c(Br)c(Br)c(Br)c1Br", "Potency (µM)": "31.62", "curve": "inhibitor, partial curve"}
{"compound": "ClC1=C(Cl)C2(Cl)C3C(Cl)C=CC3C1(Cl)C2(Cl)Cl", "stereo": "stereo not drawn", "Potency (µM)": "39.81", "curve": "activator, partial curve"}
{"compound": "CC(C)(OOC(C)(C)c1ccccc1)c1ccccc1", "Potency (µM)": "15.85", "curve": "activator, full curve"}
{"compound": "CN1CCC[C@@H]1c1cccnc1", "Potency (µM)": "39.81", "curve": "activator, partial curve, poor fit"}
{"compound": "COc1ccc([C@@H]2OC[C@]3(COC(C)=O)[C@H](C)C=C(C)[C@@H]2[C@H]3C)cc1", "Potency (µM)": "31.62", "curve": "activator, partial curve"}
{"compound": "NC(N)=NCCSSCCN=C(N)N", "Potency (µM)": "0.3981", "curve": "activator, partial curve, poor fit"}
{"compound": "Cc1cn[nH]c1", "Potency (µM)": "15.85", "curve": "activator, partial curve, poor fit"}
{"compound": "CCC/C=C(\\CCC)C(NS(=O)(=O)c1ccccc1)c1ccc(C(F)(F)F)cc1", "stereo": "stereo not drawn", "Potency (µM)": "31.62", "curve": "activator, single point"}